{"source": "PubChem BioAssay AID1259424 (University of Nebraska Medical Center, 2018)", "screen": "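Rank knockdowns across the genome by resemblance to the KSR1 depletion profile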 (primary screen)", "system": "human HCT116 colon cancer cells", "reagent": "siRNA pool against human genes, 50 nM", "read-out": "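Log2 levels of six mRNAs (branched-DNA multiplex), adjusted by two reference genes and the non-targeting median, then scored against the average KSR1 knockdown pattern as Pearson r and euclidean distance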", "direction": "mean correlation with KSR1 profile: higher = expression change more like KSR1 knockdown; mean distance from KSR1 profile: higher = expression change less like KSR1 knockdown", "note": "The whole screen tested about 14,000 reagents; shown is an unselected part. 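Higher correlation or smaller distance means closer resemblance to KSR1 loss; control wells, including KSR1 knockdowns, recur on many plates.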 Further read-outs or replicates are left out here. Not stated in the record: the time to read-out."}
{"gene":"SCFD1","mean correlation with KSR1 profile":-0.192,"mean distance from KSR1 profile":1.49}
{"gene":"GBX2","mean correlation with KSR1 profile":0.276,"mean distance from KSR1 profile":4.48}
{"gene":"NDRG1","mean correlation with KSR1 profile":-0.481,"mean distance from KSR1 profile":1.79}
{"gene":"ANKIB1","mean correlation with KSR1 profile":-0.292,"mean distance from KSR1 profile":3.73}
{"gene":"FBXW11","mean correlation with KSR1 profile":-0.452,"mean distance from KSR1 profile":2.43}
{"gene":"TBL1X","mean correlation with KSR1 profile":0.71,"mean distance from KSR1 profile":2.33}
{"gene":"SCARB2","mean correlation with KSR1 profile":-0.023,"mean distance from KSR1 profile":4.52}
{"gene":"DRD2","mean correlation with KSR1 profile":0.614,"mean distance from KSR1 profile":3.06}
{"gene":"ME2","mean correlation with KSR1 profile":0.0611,"mean distance from KSR1 profile":1.72}
{"gene":"NSG2","mean correlation with KSR1 profile":-0.291,"mean distance from KSR1 profile":2.94}
{"gene":"TSEN2","mean correlation with KSR1 profile":0.76,"mean distance from KSR1 profile":1.01}
{"gene":"TNNT2","mean correlation with KSR1 profile":-0.553,"mean distance from KSR1 profile":2.37}
{"gene":"ATP1B1","mean correlation with KSR1 profile":0.24,"mean distance from KSR1 profile":2.07}
{"gene":"MINDY3","mean correlation with KSR1 profile":0.505,"mean distance from KSR1 profile":1.31}
{"gene":"DOCK9","mean correlation with KSR1 profile":0.345,"mean distance from KSR1 profile":1.2}
{"gene":"SQSTM1","mean correlation with KSR1 profile":-0.254,"mean distance from KSR1 profile":2}
{"gene":"ZMYND15","mean correlation with KSR1 profile":0.839,"mean distance from KSR1 profile":1.35}
{"gene":"TCF21","mean correlation with KSR1 profile":-0.164,"mean distance from KSR1 profile":1.54}
{"gene":"MYO1E","mean correlation with KSR1 profile":-0.0544,"mean distance from KSR1 profile":0.855}

Entries listed so far whose target name starts with A or a:
{"gene":"ANKIB1","mean correlation with KSR1 profile":-0.292,"mean distance from KSR1 profile":3.73}
{"gene":"ATP1B1","mean correlation with KSR1 profile":0.24,"mean distance from KSR1 profile":2.07}
